± gives the uncertainty stated by the source. Many entries were measured with a wide error.
Test: self-splicing fitness, log relative to wild type (ln ratio); higher = more splicing; Tetrahymena group I intron in knt gene, E. coli kanamycin selection, DiMSum; sequences stand for … in CUCUCU…GGAGGGAAAAGUUAUCAGGCAUGCACCUGGUAGCUAGUCUUUAAACCAAUAGAUUGCAUCGGUUUAAAAGGCAAGACCGUCAAAUUGCGGGAAAGGGGUCAACAGCCGUUCAGUACCAAGUCUCAGGGGAAACUUUGAGAUGGCCUUGCAAAGGGUAUGGUAAUAAGCUGACGGACAUGGUCCUAACCACGCAGCCAAGUCCUAAGUCAACAGAUCUUCUGUUGAUAUGGAUGCAGUUCACAGACUAAAUGUCGGUCGGGGAAGAUGUAUUCUUCUCAUAAGAUAUAGUCGGACCUCUCCUUAAUGGGAGCUAGCGGAUGAAGUGAUGCAACACUGGAGCCGCUGGGAACUAAUUUGUAUGCGAAAGUAUAUUGAUUAGUUUUGGAGUACUCGUGGUCG
Procedure, shortened: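 DiMSum derived fitness as the error-weighted combination of fold changes across replicates, kanamycin versus no kanamycin, normalised to wild type. E. coli BL21(DE3) held the library, which randomised all eight P1ex-region intron nucleotides within the knt kanamycin-resistance gene on pET-22b(+). Six replicate transformations grew overnight at 37°C or 30°C on LB agar with or without 25 μg/mL kanamycin, also containing 100 μg/mL carbenicillin, 50 μM IPTG and 0.2% rhamnose, and pooled colonies were amplicon-sequenced on an Illumina HiSeq 2500.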

Sequence | self-splicing fitness (ln) (30 °C) | self-splicing fitness (ln) (37 °C)
GGGCAGCAAUAUUACGACUA | -0.237 ± 0.094 | 0.125 ± 0.11
GGUGAGCAAUAUUACGGGCG | -1.39 ± 0.14 | -0.473 ± 0.14
ACAGAGCAAUAUUACGGACC | -4.6 ± 1 | -1.79 ± 1.2
CGCGAGCAAUAUUACGACUC | -2.91 ± 1.1 | -1.14 ± 0.31
UCGGAGCAAUAUUACGGCAC | -3.89 ± 1 | –
AUAGAGCAAUAUUACGUAAA | -4.12 ± 0.6 | –
UAAUAGCAAUAUUACGACGC | – | -2.4 ± 0.55
CCCCAGCAAUAUUACGUCCC | – | -2.3 ± 0.64
AGAGAGCAAUAUUACGAUAG | -3.88 ± 1.1 | –
AUGUAGCAAUAUUACGUGGG | -5.27 ± 1 | –
UAGAAGCAAUAUUACGGGCC | – | -1.9 ± 0.31
AGUUAGCAAUAUUACGGUUU | -0.98 ± 0.071 | -0.317 ± 0.1
UCCGAGCAAUAUUACGGCUG | -2.83 ± 0.19 | -1.6 ± 0.29
UUCGAGCAAUAUUACGCACU | -3.28 ± 0.53 | –
UUAGAGCAAUAUUACGAGGG | -4.08 ± 0.61 | –
GAGUAGCAAUAUUACGCCAU | -2.49 ± 0.19 | -2.33 ± 0.31
GGCCAGCAAUAUUACGUCCC | – | -2.39 ± 1.1
GUUGAGCAAUAUUACGAUUC | -0.993 ± 0.12 | 0.00124 ± 0.2
CAGGAGCAAUAUUACGAAGA | – | -2.22 ± 0.65
CAGAAGCAAUAUUACGCGGC | – | -2.87 ± 0.61
GCUCAGCAAUAUUACGCUGA | – | -2.5 ± 0.54
CAAUAGCAAUAUUACGAAAA | – | -2.79 ± 1.1
UACGAGCAAUAUUACGCCAU | -2.44 ± 0.55 | –
CGGAAGCAAUAUUACGAAGC | -2.62 ± 0.76 | -1.98 ± 0.65

Sequence | self-splicing fitness (ln) (30 °C) | self-splicing fitness (ln) (37 °C)
CGGGAGCAAUAUUACGCUGC | -2.42 ± 1.2 | -3.22 ± 0.74
CGAGAGCAAUAUUACGCUCG | -4.8 ± 0.51 | –
UUCGAGCAAUAUUACGCCGA | -2.65 ± 0.22 | -2.66 ± 0.33
CACAAGCAAUAUUACGUGGU | -4.1 ± 0.17 | -2.66 ± 0.19
CUCAAGCAAUAUUACGGAGU | -3.52 ± 0.17 | -3.04 ± 0.18
UGGAAGCAAUAUUACGCCUC | -5.22 ± 1 | -3.8 ± 0.59
GUAUAGCAAUAUUACGUCCG | -2.98 ± 0.18 | -1.21 ± 0.17
GUUAAGCAAUAUUACGCCAA | – | -1.02 ± 0.64
CACUAGCAAUAUUACGGAUC | – | -3.54 ± 1
AUCUAGCAAUAUUACGGAAA | -2.23 ± 0.2 | -1.66 ± 0.18
GAAGAGCAAUAUUACGCGCU | – | -2.65 ± 0.76
CCUCAGCAAUAUUACGCACC | -3.7 ± 0.52 | -3.7 ± 0.73
UUGUAGCAAUAUUACGCAAC | – | -1.53 ± 0.61
GUACAGCAAUAUUACGUCGU | -1.34 ± 0.11 | 0.338 ± 0.11
GUUUAGCAAUAUUACGAGCU | -3.97 ± 1 | –
CUUCAGCAAUAUUACGGACC | -3.73 ± 0.6 | -2.77 ± 1.1
GGGGAGCAAUAUUACGAGAA | -0.484 ± 1.1 | –
AACCAGCAAUAUUACGAAUG | -2.22 ± 0.089 | -1.89 ± 0.083
GCGUAGCAAUAUUACGCCAC | -2.09 ± 1.4 | –
AUGGAGCAAUAUUACGACGG | -3.21 ± 1.1 | –
CAAGAGCAAUAUUACGAACC | – | -1.78 ± 0.81
CCCCAGCAAUAUUACGAUUU | -3.43 ± 0.14 | -3.51 ± 0.25
UCCAAGCAAUAUUACGUCCC | -2.78 ± 0.55 | -1.76 ± 0.83
GUCUAGCAAUAUUACGCGAC | – | -1.35 ± 0.84

Sequence | self-splicing fitness (ln) (30 °C) | self-splicing fitness (ln) (37 °C)
GCCUAGCAAUAUUACGAAAC | -3.25 ± 0.51 | -1.89 ± 0.56
UGGGAGCAAUAUUACGGUCC | – | -1.08 ± 0.52
CGUUAGCAAUAUUACGGCGC | -3.31 ± 1 | –
AAUGAGCAAUAUUACGUUAC | -3.61 ± 0.54 | -3.16 ± 0.52
CUUCAGCAAUAUUACGACGA | -3.55 ± 0.52 | –
CGUGAGCAAUAUUACGUCGC | – | -2.27 ± 0.65
GGGGAGCAAUAUUACGGGGA | -1.12 ± 0.76 | -2.62 ± 0.76
UCAGAGCAAUAUUACGCUGC | -3.34 ± 1.1 | –
ACGGAGCAAUAUUACGGGUG | -3.61 ± 0.18 | -3.18 ± 0.22
AAUGAGCAAUAUUACGCAAA | -3.02 ± 0.63 | –
GGUUAGCAAUAUUACGGUGG | -4.12 ± 0.75 | –
AUCUAGCAAUAUUACGCCGC | -3.12 ± 0.62 | -1.77 ± 0.83
AAACAGCAAUAUUACGAGAA | -3.12 ± 0.53 | –
CGCGAGCAAUAUUACGCUAC | -2.96 ± 0.59 | –
CGUGAGCAAUAUUACGUGAC | – | -3.72 ± 0.52
GCGGAGCAAUAUUACGCUAC | -3.35 ± 1 | -0.687 ± 0.65
AGUAAGCAAUAUUACGUGAC | -4.51 ± 0.72 | –
CACUAGCAAUAUUACGUCGG | -1.25 ± 0.082 | 0.0907 ± 0.1
GAAGAGCAAUAUUACGGAAC | -4.03 ± 1 | –
GAACAGCAAUAUUACGAAUC | -1.76 ± 0.08 | -1.9 ± 0.13
CUCUAGCAAUAUUACGUCAC | – | -4.1 ± 0.59
CGAGAGCAAUAUUACGGCUC | – | -2.76 ± 0.74
UUCUAGCAAUAUUACGAGAC | -4.17 ± 1.1 | -1.93 ± 0.57
GGGUAGCAAUAUUACGCAGG | -3.34 ± 0.54 | –

Sequence | self-splicing fitness (ln) (30 °C) | self-splicing fitness (ln) (37 °C)
CCUCAGCAAUAUUACGCUCU | – | -2.9 ± 0.53
UGCGAGCAAUAUUACGUGCU | -2.67 ± 0.62 | –
GAUUAGCAAUAUUACGCCAG | -2.17 ± 0.32 | -0.806 ± 0.34
GGUCAGCAAUAUUACGAGCC | – | -2.03 ± 1.1
CGAUAGCAAUAUUACGCGGC | – | -4.27 ± 1
CGAUAGCAAUAUUACGCUAG | -1.18 ± 0.1 | -1.52 ± 0.19
CAGAAGCAAUAUUACGAAUC | -3.59 ± 0.6 | –
UCAAAGCAAUAUUACGAUCC | -3.21 ± 0.3 | -2.34 ± 0.4
GACGAGCAAUAUUACGCAAG | -3.42 ± 1 | -1.67 ± 0.68
UAUUAGCAAUAUUACGCCCC | -1.91 ± 0.78 | -4.43 ± 1
UAAUAGCAAUAUUACGCUAC | – | -3.63 ± 0.73
UAGAAGCAAUAUUACGAGCC | -4.6 ± 0.59 | –
AUUGAGCAAUAUUACGCUCC | – | -2.85 ± 0.79
GGCAAGCAAUAUUACGUGCC | -3.73 ± 0.52 | –
CACCAGCAAUAUUACGCGGG | -3.44 ± 0.16 | -2.4 ± 0.15
AGAGAGCAAUAUUACGUCAU | -4.81 ± 0.72 | –
GAACAGCAAUAUUACGGGGA | -1.6 ± 0.087 | -0.774 ± 0.09
CUUAAGCAAUAUUACGUUCC | -5.18 ± 1 | -1.82 ± 0.67
CGGGAGCAAUAUUACGACGG | -1.4 ± 0.23 | -0.65 ± 0.42
AUCUAGCAAUAUUACGUGAA | -2.52 ± 0.12 | -0.861 ± 0.12
UUGGAGCAAUAUUACGUCGC | 0.0483 ± 0.84 | –
UCAGAGCAAUAUUACGCAGC | -4.1 ± 0.52 | -2.69 ± 0.62
UGAGAGCAAUAUUACGCAAC | -1.74 ± 0.84 | –
AAGAAGCAAUAUUACGAUGG | -1.93 ± 0.14 | -2 ± 0.22

Single records (already shown).
UAGAAGCAAUAUUACGAGCC in the list: self-splicing fitness (ln) (30 °C): -4.6 ± 0.59
UCAAAGCAAUAUUACGAUCC in the list: self-splicing fitness (ln) (30 °C): -3.21 ± 0.3; self-splicing fitness (ln) (37 °C): -2.34 ± 0.4
CACCAGCAAUAUUACGCGGG in the list: self-splicing fitness (ln) (30 °C): -3.44 ± 0.16; self-splicing fitness (ln) (37 °C): -2.4 ± 0.15
GAACAGCAAUAUUACGGGGA in the list: self-splicing fitness (ln) (30 °C): -1.6 ± 0.087; self-splicing fitness (ln) (37 °C): -0.774 ± 0.09

(further entries)

Sequence | self-splicing fitness (ln) (30 °C) | self-splicing fitness (ln) (37 °C)
UUCAAGCAAUAUUACGUAAC | -3.25 ± 0.53 | –
GUUUAGCAAUAUUACGUGCC | – | -0.45 ± 0.63
CAGCAGCAAUAUUACGUUCC | -4.84 ± 0.51 | –
AGGCAGCAAUAUUACGCUUC | -3.75 ± 0.59 | –
UGCGAGCAAUAUUACGCCCA | -2.09 ± 0.82 | 1.79 ± 1
GUGGAGCAAUAUUACGCUAC | -2.94 ± 0.62 | -3.05 ± 0.74
UGAGAGCAAUAUUACGCUCA | -2.62 ± 0.62 | –
AUUGAGCAAUAUUACGGUGC | -2.94 ± 0.69 | -1.87 ± 0.64
UCGUAGCAAUAUUACGAAUC | – | -2.8 ± 1
CGGAAGCAAUAUUACGGAGA | -3.06 ± 0.53 | -4.15 ± 0.51
CUCCAGCAAUAUUACGAGCA | -2.09 ± 0.54 | -3.64 ± 1
GGUUAGCAAUAUUACGGCCU | -4.4 ± 1 | –
CCUCAGCAAUAUUACGACUC | – | -1.94 ± 0.67
CGAGAGCAAUAUUACGCGAC | -4.99 ± 0.72 | -3.5 ± 0.6
GACGAGCAAUAUUACGCGGC | – | -4.49 ± 0.51
GUCGAGCAAUAUUACGAUAG | – | -3.08 ± 0.61
CCCCAGCAAUAUUACGCUAA | -3.55 ± 0.18 | -3.2 ± 0.21
UGCUAGCAAUAUUACGCAAA | -3.67 ± 0.6 | –
CUGGAGCAAUAUUACGUAGA | -4.83 ± 0.51 | -2.67 ± 0.2
CCUGAGCAAUAUUACGUGGC | – | -3.66 ± 0.52
GAGGAGCAAUAUUACGGCCU | – | -0.824 ± 0.56
UGGGAGCAAUAUUACGAGGC | – | -1.88 ± 1.2

Reference: the supplement of paper PMC7877785
